Entries after “also recorded” stand apart in the source; their conditions may differ. For at least one compound, name, drawing or mass did not settle the structure.
Tests used:
secreted NLGN3 = experiment: Secreted NLGN3 in active CM of acute cortical slices incubated with protease inhibitors, Western blot; format: cell-based, mouse; conditions: slices incubated with protease inhibitor during optogenetic stimulation; preliminary experiments
Method: Thy1::ChR2 or WT mice between the age of 4-7 weeks were briefly exposed to CO2, and immediately decapitated. Extracted brains were placed in oxygenated sucrose solution and sliced in 350-μm sections using a vibratome (Leica VT 1200S, Buffalo Grove, Ill.). Slices were then placed in buffering solution (aCSF; 119 mM NaCl, 11 mM D-glucose, 25 mM NaHCO3, 2.5 mM KCl, 1.2 mM NaH2PO4, 2.3 mM MgCl2, and 2.5 mM CaCl2) and allowed to recover for at least an hour. After recovery, slices were then moved into a 24 well plate and stimulated using a blue-light LED from a microscope objective. The stimulation paradigm mirrored in vivo experiments, using 20-Hz pulses of blue light for a 30 s on, 90 s off cycle over a period of 30 minutes. Surrounding medium was then collected for immediate use or frozen for future experiments.
A series of similar preliminary experiments were performed in which acute cortical slices were incubated with different protease inhibitors during optogenetic stimulation and then the active CM was analyzed by Western blot for secreted NLGN3.
Role for MMP9 in NLGN3 secretion: Acute cortical slices from Thy1::ChR2 mice were optogenetically-stimulated in the presence or absence of protease inhibitors as indicated. Conditioned media was analyzed by Western blot for secreted NLGN3 content.

pHGG cells = experiment: pHGG cell proliferation with active CM from slices stimulated in presence of protease inhibitor; format: cell-based, human; conditions: inhibitor present during optogenetic stimulation of slices
Text: MMP inhibition abrogates activity-regulated glioma proliferation. Acute cortical slices were optogenetically-stimulated in the presence or absence of a protease inhibitor as in Example 14, and pHGG cells were exposed to the CM. As expected, active CM in the absence of protease inhibitors contained secreted NLGN3 (FIG. 37) and promoted glioma cell proliferation (FIG. 38).
MMP inhibition in situ reduces activity-regulated glioma cell proliferation in vitro Active CM from Thy1::ChR2 cortical slices were incubated with either the multi-MMP inhibitor batimastat (A) or the ADAM17 inhibitor TAPI (B) during optogenetic stimulation and the active CM collected. Unconditioned media (aCSF) with or without inhibitor was used in control wells. Data shown as mean±SEM. One-way ANOVA, *P<0.05, ***P<0.001. n.s.=P>0.05.

SMILES: CNC(=O)[C@H](Cc1ccccc1)NC(=O)[C@H](CC(C)C)[C@H](CSc1cccs1)C(=O)NO [batimastat, Batimastat]
- secreted NLGN3 levels in active CM (secreted NLGN3): significant decrease in NLGN3 levels; also recorded: decreased NLGN3 secretion
- effect on the mitogenic effect of active CM (pHGG cells): abrogated the mitogenic effect of active CM

— patent US10377818B2, “Method of treating glioma” (The Board of Trustees of the Leland Stanford Junior …, priority 2015, dated 2019)
